Data as given in PubChem BioAssay AID1259308 (NCATS, 2017).

- Aim: 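Candidate targets for better recombinant protein yield in mammalian cells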 (primary screen)
- System: human HEK293 embryonic kidney cells stably expressing firefly luciferase (HEK-CMV-Luc2-Hygro)
- Reagents: single siRNA against human genes, 0.8 pmol siRNA per well
- Duration: 72 h
- Measured: 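Luciferase light (ONE-Glo) measured on one replicate plate set and viability (CellTiter-Glo) on the other, scaled to a negative control siRNA, with robust z-scores and luciferase per cell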
- Reading the numbers: total luciferase, z-score and total luciferase, % of control: higher = more reporter protein produced; luciferase per cell, z-score: higher = more reporter output per viable cell; viable cells, % of control: higher = more viable cells
- Active means: 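Active when the median/MAD z-score for overall luciferase is greater than 3; a gene was taken forward for validation with new siRNAs if at least two of its three siRNAs passed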
- Calls: active = raised luciferase; inactive = no rise
In all, the deposit lists about 59,000 reagents; below is a random part of them. About 1,510 of all reagents (2.6%) were called active. 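Calls use total luciferase alone and ignore viability, so some active siRNAs may act by altering cell number.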 The numbers tell different reagents against one gene apart.

no.	Gene	reagent	total luciferase, z-score	total luciferase, % of control	luciferase per cell, z-score	viable cells, % of control	Call
1	VPS37D	1	-0.346	75	-0.00837	84	inactive
2	VPS37D	2	-2.39	34.3	-2.65	76.9	inactive
3	VPS37D	3	1.81	118	0.921	103	inactive
4	GJB6	1	-0.676	68.4	-0.603	89.7	inactive
5	GJB6	2	0.157	85	-0.306	103	inactive
6	GJB6	3	-0.327	75.4	-0.595	98.5	inactive
7	OR11L1	1	-0.74	67.2	-0.324	81.8	inactive
8	OR11L1	2	-1.4	54	-0.608	70.8	inactive
9	OR11L1	3	-0.733	67.3	-0.634	88.9	inactive
10	AKR7L	1	0.343	88.7	0.143	95.5	inactive
11	AKR7L	2	-0.182	78.3	0.734	72.1	inactive
12	AKR7L	3	-0.531	71.3	-0.111	82.1	inactive
13	ETFBKMT	1	0.5	91.8	-0.0757	105	inactive
14	ETFBKMT	2	1.27	107	0.987	92.3	inactive
15	ETFBKMT	3	0.168	85.2	0.477	84	inactive
16	TPK1	1	-1.12	59.5	-1.71	104	inactive
17	TPK1	2	-0.249	76.9	-0.767	105	inactive
18	TPK1	3	-0.322	75.5	-0.572	98.1	inactive
19	HSFX1	1	0.126	84.4	1.04	71.7	inactive
20	HSFX1	2	-2.49	32.4	-3.56	92.4	inactive
21	HSFX1	3	-1.85	45.1	-1.82	81.2	inactive
22	MAPRE1	1	0.462	91.1	0.179	97.1	inactive
23	MAPRE1	2	0.125	84.4	0.206	89.3	inactive
24	MAPRE1	3	0.288	87.6	-0.207	103	inactive
